# Assay results reported in article PMC9637222, “Autoinducer-2 and bile salts induce c-di-GMP synthesis to repress the T3SS via a T3SS chaperone” (Nature Communications, 2022).
# By UniProt entry, the sequences of proteins in these tests, tags left out.
# UniProt P69066: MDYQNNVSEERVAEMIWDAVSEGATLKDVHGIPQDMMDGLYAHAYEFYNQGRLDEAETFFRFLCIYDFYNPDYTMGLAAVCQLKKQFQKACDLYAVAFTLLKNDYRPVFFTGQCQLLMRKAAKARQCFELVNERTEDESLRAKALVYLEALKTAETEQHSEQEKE
# No constants are given. Whether binding was seen depends on the method and setting. Binding seen in cells or lysates may run through a third protein. Some binding calls cover weakened binding; strength is not graded here. Sequences can lack the tags named with a protein.
# B1: InvF-His6 (protein, UniProt P69343 1-216)
# chain: MSFSESRHNENCLIQEGALLFCEQAVVAPVSGDLVFRPLKIEVLSKLLAFIDGAGLVDTTYAESDKWVLLSPEFRAIWQDRKRCEYWFLQQIITPSPAFNKVLALLRKSESYWLVGYLLAQSTSGNTMRMLGEDYGVSYTHFRRLCSRALGGKAKSELRNWRMAQSLLNSVEGHENITQLAVNHGYSSPSHFSSEIKELIGVSPRKLSNIIQLADK
# B2: SipB-His6 (protein, UniProt Q56019 1-593)
# chain: MVNDASSISRSGYTQNPRLAEAAFEGVRKNTDFLKAADKAFKDVVATKAGDLKAGTKSGESAINTVGLKPPTDAAREKLSSEGQLTLLLGKLMTLLGDVSLSQLESRLAVWQAMIESQKEMGIQVSKEFQTALGEAQEATDLYEASIKKTDTAKSVYDAATKKLTQAQNKLQSLDPADPGYAQAEAAVEQAGKEATEAKEALDKATDATVKAGTDAKAKAEKADNILTKFQGTANAASQNQVSQGEQDNLSNVARLTMLMAMFIEIVGKNTEESLQNDLALFNALQEGRQAEMEKKSAEFQEETRKAEETNRIMGCIGKVLGALLTIVSVVAAVFTGGASLALAAVGLAVMVADEIVKAATGVSFIQQALNPIMEHVLKPLMELIGKAITKALEGLGVDKKTAEMAGSIVGAIVAAIAMVAVIVVVAVVGKGAAAKLGNALSKMMGETIKKLVPNVLKQLAQNGSKLFTQGMQRITSGLGNVGSKMGLQTNALSKELVGNTLNKVALGMEVTNTAAQSAGGVAEGVFIKNASEALADFMLARFAMDQIQQWLKQSVEIFGENQKVTAELQKAMSSAVQQNADASRFILRQSRA
# Biological target: SicA-HA (S. Typhimurium) (UniProt P69066)
# Test: co-IP
row,Binder,binding
1,B1,binds
2,B2,binds
